The other results are listed elsewhere or left out.
What was measured:
Test in all cases: log2 fold change, soluble protein after heating vs DMSO (PISA); higher = thermal stabilisation; K562 lysate, 10 uM; active = over 0.2 and 3.5 SD of the protein, either way, in both replicates (recomputed)
[1] = compound: CN1CC[C@H](c2c(O)cc(O)c3c(=O)cc(-c4ccccc4Cl)oc23)[C@H](O)C1 [alvocidib]
Summary of the method: (§1)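 K562 pellets were dounce-homogenised in PBS pH 7.4 containing 1 mM MgCl2, and the crude extract, at 1 mg/mL protein, was exposed to 10 μM compound for 30 min. Aliquots were heated for 3 min across 48°C-58°C, pooled, brought to 0.5% NP-40 at 4°C and spun at 21,000xg for 90 min, with the supernatant taken as soluble protein. TMTpro 16plex LC-MS/MS with equalised channel sums quantified that protein. Values are log-two fold changes in thermal stability relative to solvent controls, taken from duplicates.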

Amino acid sequences for entries named in this document (tags omitted). A change or cut given only in a name is not applied to a line headed by its entry.
UniProt Q9HBD1: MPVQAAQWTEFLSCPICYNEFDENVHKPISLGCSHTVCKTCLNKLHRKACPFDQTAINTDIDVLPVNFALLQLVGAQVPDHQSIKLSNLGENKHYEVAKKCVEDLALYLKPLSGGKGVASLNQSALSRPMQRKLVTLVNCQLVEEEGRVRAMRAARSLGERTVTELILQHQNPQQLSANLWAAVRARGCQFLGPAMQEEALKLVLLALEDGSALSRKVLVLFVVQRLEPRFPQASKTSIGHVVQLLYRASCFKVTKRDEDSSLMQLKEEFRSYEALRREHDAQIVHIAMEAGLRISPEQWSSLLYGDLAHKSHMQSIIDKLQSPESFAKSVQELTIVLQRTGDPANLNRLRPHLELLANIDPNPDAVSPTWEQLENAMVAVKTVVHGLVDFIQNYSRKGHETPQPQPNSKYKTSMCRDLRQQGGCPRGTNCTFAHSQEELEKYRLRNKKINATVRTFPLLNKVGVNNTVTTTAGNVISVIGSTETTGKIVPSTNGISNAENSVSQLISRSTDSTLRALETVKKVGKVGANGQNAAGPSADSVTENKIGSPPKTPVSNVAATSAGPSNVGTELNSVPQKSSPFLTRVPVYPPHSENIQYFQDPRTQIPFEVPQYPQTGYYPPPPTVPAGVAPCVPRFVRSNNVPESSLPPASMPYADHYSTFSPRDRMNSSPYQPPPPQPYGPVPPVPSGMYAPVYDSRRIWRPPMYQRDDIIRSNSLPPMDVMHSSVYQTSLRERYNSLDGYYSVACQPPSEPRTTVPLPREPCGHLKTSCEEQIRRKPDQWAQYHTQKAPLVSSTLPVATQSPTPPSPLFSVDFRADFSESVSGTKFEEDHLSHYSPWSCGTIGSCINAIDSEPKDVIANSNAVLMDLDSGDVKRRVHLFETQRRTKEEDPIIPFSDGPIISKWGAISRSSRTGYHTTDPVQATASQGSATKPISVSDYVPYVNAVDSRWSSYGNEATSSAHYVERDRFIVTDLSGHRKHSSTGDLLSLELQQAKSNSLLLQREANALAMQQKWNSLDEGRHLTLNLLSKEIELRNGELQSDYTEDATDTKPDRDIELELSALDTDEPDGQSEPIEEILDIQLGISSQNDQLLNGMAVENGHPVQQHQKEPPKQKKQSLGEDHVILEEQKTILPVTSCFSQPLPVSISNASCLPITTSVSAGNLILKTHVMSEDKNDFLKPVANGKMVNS
UniProt Q96EN9: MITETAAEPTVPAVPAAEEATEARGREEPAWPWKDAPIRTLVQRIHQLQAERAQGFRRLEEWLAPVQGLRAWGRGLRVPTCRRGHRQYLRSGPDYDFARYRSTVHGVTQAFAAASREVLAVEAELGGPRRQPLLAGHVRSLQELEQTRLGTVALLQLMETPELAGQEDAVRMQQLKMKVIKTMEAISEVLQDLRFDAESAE
UniProt Q09028, whole entry, looked up: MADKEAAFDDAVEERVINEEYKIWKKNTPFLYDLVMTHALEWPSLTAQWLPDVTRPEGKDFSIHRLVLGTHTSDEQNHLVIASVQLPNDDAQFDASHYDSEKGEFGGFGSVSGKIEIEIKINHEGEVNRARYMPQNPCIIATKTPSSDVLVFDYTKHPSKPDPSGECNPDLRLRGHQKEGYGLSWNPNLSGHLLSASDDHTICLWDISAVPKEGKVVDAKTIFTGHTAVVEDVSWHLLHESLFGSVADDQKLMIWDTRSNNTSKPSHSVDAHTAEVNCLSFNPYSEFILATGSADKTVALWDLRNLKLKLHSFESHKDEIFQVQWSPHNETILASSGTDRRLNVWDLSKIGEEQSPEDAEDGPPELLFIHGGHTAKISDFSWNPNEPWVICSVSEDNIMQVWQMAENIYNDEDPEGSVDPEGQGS
UniProt Q96H35: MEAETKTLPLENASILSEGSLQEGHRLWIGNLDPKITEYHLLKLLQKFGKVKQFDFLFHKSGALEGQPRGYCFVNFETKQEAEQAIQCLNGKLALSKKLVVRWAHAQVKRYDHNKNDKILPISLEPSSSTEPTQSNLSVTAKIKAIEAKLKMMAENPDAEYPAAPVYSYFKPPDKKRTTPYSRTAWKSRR
UniProt Q5RL73: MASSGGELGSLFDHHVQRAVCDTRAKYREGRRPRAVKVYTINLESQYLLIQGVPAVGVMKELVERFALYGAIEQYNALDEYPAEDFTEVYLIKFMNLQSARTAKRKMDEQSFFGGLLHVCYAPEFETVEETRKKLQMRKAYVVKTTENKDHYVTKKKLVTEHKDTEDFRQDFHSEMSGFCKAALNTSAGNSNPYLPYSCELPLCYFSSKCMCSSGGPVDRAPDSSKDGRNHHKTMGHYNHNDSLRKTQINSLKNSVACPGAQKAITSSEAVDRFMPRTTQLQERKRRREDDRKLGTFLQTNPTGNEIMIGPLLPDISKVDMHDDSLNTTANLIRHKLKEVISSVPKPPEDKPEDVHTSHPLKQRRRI
UniProt O94761: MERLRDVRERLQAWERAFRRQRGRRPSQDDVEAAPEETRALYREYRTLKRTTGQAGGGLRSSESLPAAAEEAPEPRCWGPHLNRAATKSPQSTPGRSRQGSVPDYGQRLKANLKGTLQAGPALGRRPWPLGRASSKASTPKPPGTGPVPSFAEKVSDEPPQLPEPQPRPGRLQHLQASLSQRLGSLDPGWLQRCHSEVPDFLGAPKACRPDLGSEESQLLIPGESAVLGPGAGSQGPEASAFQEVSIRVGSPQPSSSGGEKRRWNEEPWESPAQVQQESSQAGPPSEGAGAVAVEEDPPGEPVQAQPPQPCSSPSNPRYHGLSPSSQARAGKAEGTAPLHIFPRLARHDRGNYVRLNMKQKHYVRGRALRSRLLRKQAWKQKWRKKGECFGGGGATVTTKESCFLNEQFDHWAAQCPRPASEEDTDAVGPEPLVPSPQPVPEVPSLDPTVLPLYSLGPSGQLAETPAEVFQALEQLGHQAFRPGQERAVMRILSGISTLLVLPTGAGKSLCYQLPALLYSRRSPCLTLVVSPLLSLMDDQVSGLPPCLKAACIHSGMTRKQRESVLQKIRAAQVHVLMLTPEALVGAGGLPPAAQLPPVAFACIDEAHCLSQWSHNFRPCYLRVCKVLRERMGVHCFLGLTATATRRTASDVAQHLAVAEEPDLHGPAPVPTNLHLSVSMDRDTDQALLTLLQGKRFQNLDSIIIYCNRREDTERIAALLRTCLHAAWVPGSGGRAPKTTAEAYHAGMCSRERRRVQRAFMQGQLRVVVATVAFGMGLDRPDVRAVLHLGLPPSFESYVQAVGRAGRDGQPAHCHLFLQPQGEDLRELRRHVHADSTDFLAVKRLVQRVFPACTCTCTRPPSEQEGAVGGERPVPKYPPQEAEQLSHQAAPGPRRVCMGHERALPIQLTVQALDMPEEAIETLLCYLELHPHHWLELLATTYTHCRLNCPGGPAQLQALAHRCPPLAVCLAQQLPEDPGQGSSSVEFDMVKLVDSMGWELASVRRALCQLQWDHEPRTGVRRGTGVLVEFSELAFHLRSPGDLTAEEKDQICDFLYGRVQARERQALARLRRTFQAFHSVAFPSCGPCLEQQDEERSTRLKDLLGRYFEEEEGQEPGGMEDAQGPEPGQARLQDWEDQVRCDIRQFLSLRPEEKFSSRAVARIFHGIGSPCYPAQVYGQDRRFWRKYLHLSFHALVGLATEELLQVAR
UniProt O43251: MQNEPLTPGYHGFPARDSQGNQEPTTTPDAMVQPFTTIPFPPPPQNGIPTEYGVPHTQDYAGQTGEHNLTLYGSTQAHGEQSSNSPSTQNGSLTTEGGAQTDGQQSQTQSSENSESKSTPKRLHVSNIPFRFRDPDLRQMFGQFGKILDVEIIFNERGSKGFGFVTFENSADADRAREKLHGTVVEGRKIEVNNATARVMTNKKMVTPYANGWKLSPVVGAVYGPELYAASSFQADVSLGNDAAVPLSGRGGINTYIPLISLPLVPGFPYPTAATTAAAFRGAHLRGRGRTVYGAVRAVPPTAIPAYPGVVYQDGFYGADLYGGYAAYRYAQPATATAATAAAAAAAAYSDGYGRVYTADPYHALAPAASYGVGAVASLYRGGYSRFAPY
UniProt A6NEQ0: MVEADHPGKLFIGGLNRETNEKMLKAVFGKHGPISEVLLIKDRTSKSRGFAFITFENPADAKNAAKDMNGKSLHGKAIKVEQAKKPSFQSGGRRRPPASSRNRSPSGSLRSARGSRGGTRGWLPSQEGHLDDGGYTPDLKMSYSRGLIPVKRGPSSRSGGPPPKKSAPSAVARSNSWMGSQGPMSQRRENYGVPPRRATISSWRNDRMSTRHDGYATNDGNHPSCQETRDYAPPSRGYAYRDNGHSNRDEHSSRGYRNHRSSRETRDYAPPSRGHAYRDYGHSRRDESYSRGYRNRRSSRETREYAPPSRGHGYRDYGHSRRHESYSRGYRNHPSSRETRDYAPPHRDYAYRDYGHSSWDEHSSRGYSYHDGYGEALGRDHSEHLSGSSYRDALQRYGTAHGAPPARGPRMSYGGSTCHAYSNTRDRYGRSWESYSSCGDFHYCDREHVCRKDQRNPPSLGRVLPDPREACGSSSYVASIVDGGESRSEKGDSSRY
UniProt Q96T37: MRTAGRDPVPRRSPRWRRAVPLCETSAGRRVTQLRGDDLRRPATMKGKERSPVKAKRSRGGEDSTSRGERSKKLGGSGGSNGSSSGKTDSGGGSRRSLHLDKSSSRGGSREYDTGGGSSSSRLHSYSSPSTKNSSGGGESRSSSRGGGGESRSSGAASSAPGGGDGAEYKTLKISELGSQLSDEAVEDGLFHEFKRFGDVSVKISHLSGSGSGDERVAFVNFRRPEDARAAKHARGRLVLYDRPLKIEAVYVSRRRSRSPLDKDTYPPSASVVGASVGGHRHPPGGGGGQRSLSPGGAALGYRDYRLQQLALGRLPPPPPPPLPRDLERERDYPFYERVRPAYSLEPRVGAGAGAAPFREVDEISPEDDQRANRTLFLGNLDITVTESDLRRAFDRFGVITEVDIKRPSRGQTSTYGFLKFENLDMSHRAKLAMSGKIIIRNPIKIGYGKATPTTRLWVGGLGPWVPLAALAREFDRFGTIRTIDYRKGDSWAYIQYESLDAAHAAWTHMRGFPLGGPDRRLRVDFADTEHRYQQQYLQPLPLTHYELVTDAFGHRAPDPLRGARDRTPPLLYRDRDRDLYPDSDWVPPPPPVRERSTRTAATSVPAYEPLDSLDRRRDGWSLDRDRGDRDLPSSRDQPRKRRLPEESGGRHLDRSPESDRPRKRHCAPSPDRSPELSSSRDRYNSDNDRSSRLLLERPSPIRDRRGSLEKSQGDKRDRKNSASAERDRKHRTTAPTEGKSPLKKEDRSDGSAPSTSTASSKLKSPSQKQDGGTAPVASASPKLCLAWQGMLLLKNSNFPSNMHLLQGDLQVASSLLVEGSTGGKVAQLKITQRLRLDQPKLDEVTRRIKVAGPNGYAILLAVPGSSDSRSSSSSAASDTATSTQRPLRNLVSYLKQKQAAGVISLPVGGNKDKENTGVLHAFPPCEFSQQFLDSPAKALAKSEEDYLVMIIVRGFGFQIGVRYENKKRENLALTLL
UniProt Q8TEB9: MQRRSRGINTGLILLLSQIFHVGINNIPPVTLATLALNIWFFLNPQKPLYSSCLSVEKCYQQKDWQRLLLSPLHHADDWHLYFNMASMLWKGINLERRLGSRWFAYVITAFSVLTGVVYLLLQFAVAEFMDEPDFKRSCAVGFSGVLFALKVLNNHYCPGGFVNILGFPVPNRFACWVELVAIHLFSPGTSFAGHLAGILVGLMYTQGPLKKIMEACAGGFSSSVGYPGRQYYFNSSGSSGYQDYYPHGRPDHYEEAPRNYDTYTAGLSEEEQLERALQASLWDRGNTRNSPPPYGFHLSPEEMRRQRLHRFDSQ
UniProt Q8TC12: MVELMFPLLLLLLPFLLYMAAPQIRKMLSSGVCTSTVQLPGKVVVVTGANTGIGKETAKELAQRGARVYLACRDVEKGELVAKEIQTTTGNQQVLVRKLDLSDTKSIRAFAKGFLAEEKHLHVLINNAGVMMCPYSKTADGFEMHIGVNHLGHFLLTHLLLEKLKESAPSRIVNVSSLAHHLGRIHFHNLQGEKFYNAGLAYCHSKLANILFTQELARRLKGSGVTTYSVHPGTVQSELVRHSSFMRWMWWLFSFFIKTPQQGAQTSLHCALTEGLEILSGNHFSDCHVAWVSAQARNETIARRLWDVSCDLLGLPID

[2] = compound: CN1CCc2c(c3ccccc3n2Cc2ccc(C(=O)NO)cc2)C1 [Tubastatin A]
Summary of the method: as §1

[3] = compound: CNC(=O)c1ccc(Nc2ncc(C(F)(F)F)c(NCc3nccnc3N(C)S(C)(=O)=O)n2)cc1 [defactinib]
Summary of the method: as §1

[4] = compound: CNc1nc(-c2ccc3c(N)n[nH]c3c2)cc(N2C[C@@H](C(=O)NC3CCCCC3)CC[C@H]2C)n1
Summary of the method: as §1

[5] = compound: COC(=O)N[C@@H](C)CNc1nccc(-c2cn(C(C)C)nc2-c2cc(Cl)cc(NS(C)(=O)=O)c2F)n1 [encorafenib]
Summary of the method: as §1

[6] = compound: COC(=O)[C@H](CCSC)NC(=O)C1=C(C=C(C=C1)NC[C@H](CS)N)C2=CC=CC=C2
Summary of the method: as §1

[7] = compound: COc1cc2nc(-c3cc(F)ccc3O)nc(N[C@@H]3CNC[C@H]3C(C)(C)O)c2cc1OC
Summary of the method: as §1

[8] = compound: CS(=O)(=O)CCNCc1ccc(-c2ccc3ncnc(Nc4ccc(OCc5cccc(F)c5)c(Cl)c4)c3c2)o1 [lapatinib]
Summary of the method: as §1

[9] = compound: C[C@@H](Oc1cc(-c2cnn(C3CCNCC3)c2)cnc1N)c1c(Cl)ccc(F)c1Cl [crizotinib]
Summary of the method: as §1

[10] = compound: C[C@H](C1=CC=C(C=C1)C(=O)NC2=C3C=CNC3=NC=C2)N
Summary of the method: as §1

[11] = compound: C[C@H](Nc1ncnc2nc[nH]c12)c1cc2cccc(Cl)c2c(=O)n1-c1ccccc1 [duvelisib]
Summary of the method: as §1

[12] = compound: Cc1cc(Nc2cc(CN3CCOCC3)c3nc(C)c(Cc4ccc(Cl)cc4F)n3n2)n[nH]1 [gandotinib]
Summary of the method: as §1

[13] = compound: Cc1cc(Nc2cc(N3CCN(C)CC3)nc(Sc3ccc(NC(=O)C4CC4)cc3)n2)n[nH]1 [tozasertib]
Summary of the method: as §1

[14] = compound: Cc1ccc(-n2nc(C(C)(C)C)cc2NC(=O)Nc2ccc(OCCN3CCOCC3)c3ccccc23)cc1 [doramapimod]
Summary of the method: as §1

[15] = compound: Cc1cccc(CC(=O)N2CCc3c2ccc(-c2cn(C)c4ncnc(N)c24)c3F)n1
Summary of the method: as §1

[16] = compound: CNC(=O)C1=CC=CC=C1NC2=NC(=NC=C2Cl)NC3=C(C=C(C=C3)N4CCOCC4)OC
Summary of the method: as §1

[17] = compound: COc1cc(Nc2ncc3c(n2)-c2ccc(Cl)cc2C(c2c(F)cccc2OC)=NC3)ccc1C(=O)O [alisertib]
Summary of the method: as §1

[18] = compound: COc1cc2ncnc(Nc3ccc(F)c(Cl)c3)c2cc1OCCCN1CCOCC1 [gefitinib]
Summary of the method: as §1

[19] = compound: CS(=O)(=O)N1CCN(Cc2cc3nc(-c4cccc5[nH]ncc45)nc(N4CCOCC4)c3s2)CC1 [pictilisib]
Summary of the method: as §1

[20] = compound: Cc1ccc(NC(=O)c2ccc(CN3CC[C@H](N(C)C)C3)c(C(F)(F)F)c2)cc1Nc1nccc(-c2cncnc2)n1 [bafetinib]
Summary of the method: as §1

## RC3H2 (UniProt Q9HBD1)
[1]
  log2 fold change: inactive: -0.011
[2]
  log2 fold change: inactive: -0.21
[3]
  log2 fold change: inactive: 0.085
[4]
  log2 fold change: inactive: -0.062
[5]
  log2 fold change: inactive: 0.091
[6]
  log2 fold change: inactive: -0.165
[7]
  log2 fold change: inactive: -0.001
[8]
  log2 fold change: inactive: -0.16
[9]
  log2 fold change: inactive: 0.017
[10]
  log2 fold change: inactive: -0.051
[11]
  log2 fold change: inactive: 0.003
[12]
  log2 fold change: inactive: 0.031
[13]
  log2 fold change: inactive: 0.119
[14]
  log2 fold change: inactive: -0.002
[15]
  log2 fold change: inactive: 0.21

## REX1BD (UniProt Q96EN9)
[1]
  log2 fold change: inactive: 0.008
[2]
  log2 fold change: inactive: -0.004
[16]
  log2 fold change: inactive: -0.016
[4]
  log2 fold change: inactive: 0.101
[5]
  log2 fold change: inactive: 0.074
[6]
  log2 fold change: inactive: 0.124
[17]
  log2 fold change: inactive: 0.062
[18]
  log2 fold change: inactive: -0.163
[9]
  log2 fold change: inactive: -0.061
[10]
  log2 fold change: inactive: 0.076
[11]
  log2 fold change: inactive: 0.055
[12]
  log2 fold change: inactive: -0.084
[13]
  log2 fold change: inactive: -0.052
[14]
  log2 fold change: inactive: -0.003
[15]
  log2 fold change: inactive: -0.167

## RBBP4 isoform 4 (UniProt Q09028)
[1]
  log2 fold change: inactive: -0.178
[2]
  log2 fold change: inactive: 0.108
[17]
  log2 fold change: inactive: 0.06
[7]
  log2 fold change: inactive: 0.044
[18]
  log2 fold change: inactive: 0.114
[8]
  log2 fold change: inactive: -0.122
[10]
  log2 fold change: inactive: -0.006
[12]
  log2 fold change: inactive: -0.248
[15]
  log2 fold change: inactive: -0.052

## RBM18 (UniProt Q96H35)
[1]
  log2 fold change: inactive: 0.13
[2]
  log2 fold change: inactive: 0.002
[3]
  log2 fold change: inactive: 0.093
[5]
  log2 fold change: inactive: 0.119
[6]
  log2 fold change: inactive: -0.03
[17]
  log2 fold change: inactive: 0.014
[18]
  log2 fold change: inactive: -0.096
[10]
  log2 fold change: inactive: 0.274
[12]
  log2 fold change: inactive: 0.077
[13]
  log2 fold change: inactive: 0.081
[15]
  log2 fold change: inactive: -0.051

## RCBTB1 (UniProt Q8NDN9)
[1]
  log2 fold change: inactive: -0.013
[2]
  log2 fold change: inactive: -0.174
[16]
  log2 fold change: inactive: -0.029
[17]
  log2 fold change: inactive: 0.249
[18]
  log2 fold change: inactive: -0.065
[9]
  log2 fold change: inactive: -0.085
[10]
  log2 fold change: inactive: 0.202
[12]
  log2 fold change: inactive: -0.046
[14]
  log2 fold change: inactive: 0.016
[15]
  log2 fold change: inactive: 0.039

## RBM48 isoform 2 (UniProt Q5RL73)
[1]
  log2 fold change: inactive: -0.06
[2]
  log2 fold change: inactive: -0.141
[16]
  log2 fold change: inactive: -0.007
[3]
  log2 fold change: inactive: -0.213
[4]
  log2 fold change: inactive: 0.004
[5]
  log2 fold change: inactive: 0.081
[6]
  log2 fold change: inactive: -0.04
[9]
  log2 fold change: inactive: -0.039
[10]
  log2 fold change: inactive: 0.055
[11]
  log2 fold change: inactive: 0.049
[12]
  log2 fold change: inactive: 0.08
[13]
  log2 fold change: inactive: -0.008
[14]
  log2 fold change: inactive: 0.016
[15]
  log2 fold change: inactive: -0.09

## RECQL4 (UniProt O94761)
[1]
  log2 fold change: inactive: 0.042
[2]
  log2 fold change: inactive: -0.045
[16]
  log2 fold change: inactive: 0.104
[3]
  log2 fold change: inactive: 0.049
[4]
  log2 fold change: inactive: -0.02
[5]
  log2 fold change: inactive: 0.023
[6]
  log2 fold change: inactive: 0.056
[17]
  log2 fold change: inactive: 0.028
[18]
  log2 fold change: inactive: 0.065
[19]
  log2 fold change: inactive: -0.032
[9]
  log2 fold change: inactive: -0.079
[10]
  log2 fold change: inactive: -0.039
[11]
  log2 fold change: inactive: 0.061
[12]
  log2 fold change: active: -0.472
[13]
  log2 fold change: inactive: -0.014
[14]
  log2 fold change: inactive: 0.029
[20]
  log2 fold change: inactive: -0.099
[15]
  log2 fold change: inactive: 0.146

## RBFOX2 isoform 8 (UniProt O43251)
[1]
  log2 fold change: inactive: 0.019
[2]
  log2 fold change: inactive: -0.046
[16]
  log2 fold change: inactive: 0.237
[4]
  log2 fold change: inactive: 0.111
[5]
  log2 fold change: inactive: -0.035
[6]
  log2 fold change: inactive: 0.174
[7]
  log2 fold change: inactive: -0.029
[8]
  log2 fold change: inactive: -0.137
[19]
  log2 fold change: inactive: 0.016
[9]
  log2 fold change: inactive: 0.17
[10]
  log2 fold change: inactive: 0.108
[11]
  log2 fold change: inactive: 0.021
[12]
  log2 fold change: inactive: -0.157
[13]
  log2 fold change: inactive: 0.074
[14]
  log2 fold change: inactive: -0.185
[20]
  log2 fold change: inactive: -0.175
[15]
  log2 fold change: inactive: 0.115

## RBMY1E (UniProt A6NEQ0)
[1]
  log2 fold change: inactive: -0.105
[3]
  log2 fold change: inactive: 0.061
[4]
  log2 fold change: inactive: -0.02
[5]
  log2 fold change: inactive: -0.044
[6]
  log2 fold change: inactive: 0.03
[7]
  log2 fold change: inactive: -0.063
[8]
  log2 fold change: inactive: 0.06
[19]
  log2 fold change: inactive: -0.006
[9]
  log2 fold change: inactive: -0.285
[10]
  log2 fold change: inactive: -0.204
[11]
  log2 fold change: inactive: -0.001
[12]
  log2 fold change: inactive: 0.014
[13]
  log2 fold change: inactive: -0.047
[14]
  log2 fold change: inactive: 0.181
[20]
  log2 fold change: inactive: 0.027
[15]
  log2 fold change: inactive: 0.12

## RBM15 (UniProt Q96T37)
[1]
  log2 fold change: inactive: 0.246
[2]
  log2 fold change: inactive: -0.19
[16]
  log2 fold change: inactive: 0.04
[3]
  log2 fold change: inactive: 0.024
[4]
  log2 fold change: inactive: 0.035
[5]
  log2 fold change: inactive: 0.042
[6]
  log2 fold change: inactive: -0.007
[7]
  log2 fold change: inactive: -0.046
[8]
  log2 fold change: inactive: -0.015
[19]
  log2 fold change: inactive: -0.102
[9]
  log2 fold change: inactive: -0.035
[10]
  log2 fold change: inactive: -0.099
[11]
  log2 fold change: inactive: 0.05
[12]
  log2 fold change: inactive: -0.011
[13]
  log2 fold change: inactive: -0.117
[14]
  log2 fold change: inactive: 0.016
[20]
  log2 fold change: inactive: 0.137
[15]
  log2 fold change: inactive: 0.069

## RHBDD1 (UniProt Q8TEB9)
[1]
  log2 fold change: inactive: -0.018
[3]
  log2 fold change: inactive: 0.024
[5]
  log2 fold change: inactive: 0.063
[6]
  log2 fold change: inactive: 0.054
[7]
  log2 fold change: inactive: 0.02
[8]
  log2 fold change: inactive: 0.06
[19]
  log2 fold change: inactive: -0.216
[10]
  log2 fold change: inactive: 0.036
[12]
  log2 fold change: inactive: -0.118
[13]
  log2 fold change: inactive: -0.071
[20]
  log2 fold change: inactive: -0.133
[15]
  log2 fold change: inactive: -0.028

## RDH11 (UniProt Q8TC12)
[1]
  log2 fold change: inactive: -0.071
[2]
  log2 fold change: inactive: 0.031
[16]
  log2 fold change: inactive: 0.011
[3]
  log2 fold change: inactive: 0
[4]
  log2 fold change: inactive: 0.1
[5]
  log2 fold change: inactive: 0.092
[6]
  log2 fold change: inactive: 0.149
[17]
  log2 fold change: inactive: -0.009
[7]
  log2 fold change: inactive: 0.082
[18]
  log2 fold change: inactive: -0.019
[8]
  log2 fold change: inactive: -0.035
[9]
  log2 fold change: inactive: -0.034
[10]
  log2 fold change: inactive: -0.11
[11]
  log2 fold change: inactive: -0.011
[12]
  log2 fold change: active: 0.298
[13]
  log2 fold change: inactive: 0.009
[14]
  log2 fold change: inactive: 0.041
[15]
  log2 fold change: active: 0.328

## RAVER2 (UniProt Q9HCJ3)
[1]
  log2 fold change: inactive: 0.059
[2]
  log2 fold change: inactive: 0.022
[16]
  log2 fold change: inactive: -0.12
[4]
  log2 fold change: inactive: 0.175
[5]
  log2 fold change: inactive: 0.091
[6]
  log2 fold change: inactive: -0.359
[9]
  log2 fold change: inactive: -0.117
[10]
  log2 fold change: inactive: -0.032
[11]
  log2 fold change: inactive: -0.01
[12]
  log2 fold change: inactive: 0.261
[13]
  log2 fold change: inactive: 0.05
[14]
  log2 fold change: inactive: -0.04
[15]
  log2 fold change: inactive: 0.15
